# Some of the results follow.
# Test: inhibitors of IL-1B driven NFkB p65 nuclear import, primary screen, imaging, HUVEC, IL-1B stimulus, high-content imaging (AID 796)
# Conditions: HUVEC IL-1B NFkB p65 nuclear translocation imaging; cells passing quality filter; at 2 µM; stronger effect = lower value
row,Compound,cell count
1,CCOP(C)(=S)SCC(=O)NC(C)(CC)C(=O)O (stereo unspecified),155
2,c1nnnn1CCn1cnnn1,196
3,O=P(Nc1nccs1)(c1ccccc1)c1ccccc1,199
4,CP(=O)(Nc1ccc2c(c1)OCCO2)Oc1ccccc1 (stereo unspecified),125
5,CN(C)CCOC(=O)C(O)(c1ccccc1)C1CCCCC1 (stereo unspecified),121
6,O=C(OC1CN2CCC1CC2)c1cccc(Cl)c1 (stereo unspecified),147
7,CCOC(=O)NC(Sc1ccccc1)C(Cl)(Cl)Cl (stereo unspecified),124
8,CP(=O)(Nc1ccccc1)Oc1ccc(F)cc1 (stereo unspecified),49
9,COC(=O)c1cc2c(s1)N=C(c1ccccc1)N(C)P2(=O)N1CCOCC1 (stereo unspecified),86
10,CCN(CC)CCCOC(=O)C(O)(c1ccccc1)C1CCCCC1 (stereo unspecified),94
11,CCC(=O)N1C2C3N(C(=O)CC)C1C1N(C(=O)CC)C(C(N1C(=O)CC)N3C(=O)CC)N2C(=O)CC,189
12,CP(=O)(Nc1ccccc1F)Oc1ccccc1 (stereo unspecified),187
13,O=P1(Nc2nc3ccc(Cl)cc3s2)COc2ccccc2O1 (stereo unspecified),88
14,COc1ccc(OP(C)(=O)Nc2ccccn2)cc1 (stereo unspecified),194
15,CN(C)CCOC(=O)C(O)(c1ccccc1)C1CCCC1 (stereo unspecified),199
16,CN1CCCC(OC(=O)C(c2ccccc2)c2ccccc2)C1 (stereo unspecified),202
17,COc1ccccc1OP(C)(=O)Nc1ccc(C)cc1C (stereo unspecified),121
18,CP(=O)(Nc1ccccn1)Oc1ccccc1 (stereo unspecified),179
19,CCc1ccc(OP(C)(=O)O)cc1,66
20,CC(C)CC(=O)NC(Sc1ccc(Cl)cc1)C(Cl)(Cl)Cl (stereo unspecified),102
21,Cc1c(NP(C)(=O)Oc2ccc(C(C)C)cc2)c(=O)n(-c2ccccc2)n1C (stereo unspecified),150

row,Compound,cell count
1,Cc1c2non([O-])c-2c(C)[n+](=O)[n+]1[O-],217
2,Oc1ccccc1CNc1ccccn1,161
3,COc1ccccc1OP(C)(=O)Nc1ccc(C)c(C)c1 (stereo unspecified),184
4,CCOP(=O)(Nc1ccccc1)OCC,165
5,Cc1nc2ccc3ccccc3c2o1.O=[N+]([O-])c1cc([N+](=O)[O-])c(O)c([N+](=O)[O-])c1,184
6,CP(=O)(OC12CC3CC(CC(C3)C1)C2)OC12CC3CC(CC(C3)C1)C2,161
7,COc1ccccc1OP(C)(=O)Nc1c(C)n(C)n(-c2ccccc2)c1=O (stereo unspecified),137
8,O=[N+]([O-])c1cccc2n[nH]nc12,114
9,CC(=O)N1C2C3N(C(C)=O)C1C1N(C(C)=O)C(C(N1C(C)=O)N3C(C)=O)N2C(C)=O,175
10,CCc1nc2c(n1)c1c(non1O)c1c2no[n+]1[O-],86
11,CP(=O)(Oc1ccccc1)N1CCOC1=O (stereo unspecified),185
12,CCN(CC)CC(O)COC(=O)C(O)(c1ccccc1)C1CCCCC1 (stereo unspecified),121
13,CC1CCN(C(=O)Oc2c(Cl)cc(Cl)c3cccnc23)CC1,148
14,CC(C)(C)c1ccc(OP(C)(=O)O)cc1,191
15,CP(=O)(Nc1ccc(Cl)cc1)Oc1ccc(F)cc1 (stereo unspecified),70
16,O=C(COc1ccccc1)OC1CN2CCC1CC2 (stereo unspecified),171
17,CP(=O)(NC(=O)Nc1ccccc1)Oc1ccccc1 (stereo unspecified),159
18,COP1(=S)c2c(C)nn(CCC#N)c2N=C(c2ccc(F)cc2)N1C (stereo unspecified),168
19,CP(=O)(Nc1ccccn1)Oc1ccc(Cl)cc1 (stereo unspecified),194
20,CCC(C)N(CC(C)C)C(=S)SC(NC(C)=O)C(Cl)(Cl)Cl (stereo unspecified),131
21,CP(=S)(Nn1cnnc1)Oc1ccccc1 (stereo unspecified),158

row,Compound,cell count
1,COc1ccc(OP(C)(=O)Nc2cccc(F)c2)cc1 (stereo unspecified),169
2,CCN(CC)C(=S)SC(NC=O)C(Cl)(Cl)Cl (stereo unspecified),210
3,ClCCSc1nnc(-c2cccnc2)o1,158
4,O=C(OC1CN2CCC1CC2)C12CC3CC(CC(C3)C1)C2 (stereo unspecified),101
5,Cc1cccc(OCC(=O)OC2CN3CCC2CC3)c1 (stereo unspecified),64
6,Cc1ccc(C)c(NP(C)(=O)Oc2ccccc2)c1 (stereo unspecified),120
7,Cc1cc(C)cc(OP(C)(=O)Nc2ccccn2)c1 (stereo unspecified),116
8,CCOP1(=S)c2c(C)nn(CCC#N)c2N=C(c2ccccc2F)N1C (stereo unspecified),140
9,O=[N+]([O-])c1ccc2c(c1)nnn2O,168
10,CCOP1(=S)c2c(C)nn(CCC#N)c2N=C(c2ccc(F)cc2)N1C (stereo unspecified),181
11,Cc1nn(-c2ccccc2)c2c1P(=O)(N1CCOCC1)N(C)C(c1ccccc1)=N2 (stereo unspecified),148
12,O=P1(Nc2ccc(Br)cn2)COc2ccccc2OC1,100
13,Cc1ccc(OCC(=O)OC2CN3CCC2CC3)cc1 (stereo unspecified),150
14,O=P1(Nc2ncccn2)COc2ccccc2OC1,115
15,COc1ccccc1OP(C)(=O)Nc1c(C)cccc1C (stereo unspecified),168
16,Clc1n[nH]nc1-c1nn[nH][15n]1,85
17,O=P1(Nc2ccccn2)COc2ccccc2OC1,133
18,Cc1nc2ccc3ccccc3c2s1.O=[N+]([O-])c1cc([N+](=O)[O-])c(O)c([N+](=O)[O-])c1,137
19,CC1(CBr)Cn2c(nc3ccccc3c2=O)S1 (stereo unspecified),80
